Measurements published in patent US8530619B2, “Identification of the hepcidin binding site on ferroportin” (University of Utah Research Foundation, priority 2007, dated 2013).
Part of at least one peptide drawing is inferred or uncertain, most often the ends. No end group written: not given here.

Amino acid sequences for entries named in this document (tags omitted). A change or cut given only in a name is not applied to a line headed by its entry.
UniProt P81172: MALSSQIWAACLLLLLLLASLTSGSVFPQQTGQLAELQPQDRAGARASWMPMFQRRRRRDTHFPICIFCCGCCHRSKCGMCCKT

How the values were obtained:
hepcidin = target: T1, hepcidin (Homo sapiens, UniProt P81172); assay: Inhibition of hepcidin-mediated Fpn-GFP internalization in HEK293TFpn-GFP cells by peptides preincubated with hepcidin; format: cell-based
T1 construct: generates the mature bioactive 25-amino acid form found in plasma and urine; made in house; host or cells: chemical synthesis
T1 sequence (P81172 60-84): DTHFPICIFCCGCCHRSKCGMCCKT
Method: FIGS. 1A-D illustrate inhibition of hepcidin-mediated Fpn internalization by HBD. […] The HBD peptides and hepcidin were mixed at an equal molar ratio for two hours at 37° C. and then added to cells for one or 24 hours. Fpn internalization at one hour was analyzed by epifluorescence (upper panel) and the percentage of cells showing internalized Fpn-GFP at one and 24 hours was quantified (lower panel). The data represent the standard error of the mean from analyzing over 10 fields (20-30 cells) per sample. FIG. 1B illustrates HBD inhibition of Fpn-GFP internalization. Fpn-GFP expressing cells were incubated with hepcidin, hepcidin preincubated with HBD at 37° C. or hepcidin preincubated with HBD at 4° C. Fpn-GFP internalization at one (black bars) and 24 (grey bars) hours was quantified. The percentage of cells with internalized Fpn is shown. […] The data are expressed as in FIG. 1B. […] The mixture was then incubated with cells at 37° C. and the internalization of Fpn-GFP was determined after one (black bars) or twenty four hours (grey bars).
Incubation of HEK293TFpn-GFP cells with hepcidin results in the internalization of cell surface Fpn-GFP (2) and FIG. 1A. […] Previously it was determined that hepcidin binding to Fpn was temperature dependent (2). […]

HEK293TFpn-GFP cells = assay: Pinocytosis of fluorescent dextran by cells incubated with HBD (endocytosis control); format: cell-based; settings: data not shown
125I-hepcidin = target: T2, 125I-hepcidin (Homo sapiens, UniProt P81172, M80Y); assay: 125I-hepcidin binding to bead-immobilized peptides; settings: 37° C.
T2 construct: hepcidin 25 synthesized with a tyrosine substitution at position M21 (Y-Hep 25); made in house; host or cells: chemical synthesis
T2 sequence (P81172 60-84 M80Y): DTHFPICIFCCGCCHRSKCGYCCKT
Method: FIGS. 2A-C illustrates that the binding of ^125I-hepcidin to HBD is specific and temperature dependent. In FIG. 2A peptides (HBD, scrambled-HBD or mutant (C326Y HBD) were conjugated to beads and ^125I-hepcidin was added to the bead-immobilized peptides (I-HBD) for 18 hours at 37° C. (black bars) or 4° C. (grey bars). The beads were washed and the amount of ^125I-hepcidin bound to the I-HBD was determined. In FIG. 2B a sub saturating concentration of ^125I-hepcidin (0.6 μg/ml) was incubated with I-HBD for 18 hours at 37° C. in the presence or absence of known concentrations of either hepcidin 25 (Hep 25-open circles) or hepcidin 25 synthesized with a tyrosine substitution at position M21 (Y-Hep 25) and the amount of radioactivity bound to the I-HBD determined. […]
FIGS. 3A and 3B illustrate that the dissociation of the hepcidin/HBD complex is accelerated by low temperature. […] (open circle) for the specified times and the amount of radioactivity remaining bound to the I-HBD was determined. The data are expressed as radioactivity at each time point relative to the amount bound at time zero. In FIG. 3B the ^125I-hepcidin/1-HBD complex was allowed to form at 37° C., the complex was then washed and incubated with the indicated concentration of NEM and the amount of bound radioactivity was determined after a four-hour incubation (closed circles). […]

RRFDCITTGYAYTQGLSGSILSRR [HBD wt]
hepcidin-mediated internalization of Fpn-GFP (hepcidin; HBD preincubated with hepcidin at 4° C.): did not prevent the time-dependent internalization of Fpn-GFP | hepcidin-mediated internalization of Fpn-GFP (hepcidin; peptide preincubated with hepcidin at equal molar amounts, 37° C., HEK293TFpn-GFP cells): prevented hepcidin-mediated internalization of Fpn-GFP | pinocytosis of fluorescent dextran (HEK293TFpn-GFP cells): capable of pinocytosing fluorescent dextran similar to cells without HBD | 125I-hepcidin binding to the peptide (125I-hepcidin): shown to bind ^125I-hepcidin
